Data as given in PubChem BioAssay AID1224831 (NIAID, 2016).
Test: 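Genes that support or restrain LPS-induced TNF-alpha reporter activity in macrophage-like cells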 (follow-up of hits). Cells: human THP-1 B5 monocytic leukaemia cells carrying a TNF promoter luciferase reporter, made macrophage-like with PMA. Reagent: single siRNA against human genes, 50 nM. Duration: about 68 h of knock-down, then 4 h LPS. Conditions: LPS (Salmonella minnesota, TLR-grade) at 10 ng/ml for 4 h; PMA 5 ng/ml present during knock-down. Measured: 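Firefly to renilla luciferase ratio of a TNF promoter reporter after 4 h LPS, scaled to plate median, turned into robust z-score, averaged over replicates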. Reading the numbers: TNF reporter z-score: higher = stronger LPS-induced TNF reporter signal; z-score, median over gene's siRNAs: higher = stronger TNF reporter signal across the gene's siRNAs. Active means: 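Active when the replicate mean z-score is about -1 or lower, or about 1.5 or higher; lowered and raised TNF reporter signal both count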. Calls: active = changed TNF reporter (either direction); inactive = little change.
The whole screen tested about 3,500 reagents; shown is a random part of them. Of all reagents, 731 (21%) got an active call. 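Active means either lowered or raised reporter signal; the gene-median score did not drive the per-siRNA calls.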 Reagent sequences are not shown.

| target | PubChem SID | TNF reporter z-score, replicate mean | z-score, median over gene's siRNAs | Outcome |
| --- | --- | --- | --- | --- |
| STK35 (serine/threonine kinase 35) | SID315487788 | 0.83 | 0.765 | inactive |
| STK35 (serine/threonine kinase 35) | SID315487789 | 0.15 | 0.765 | inactive |
| STK35 (serine/threonine kinase 35) | SID315487790 | 0.7 | 0.765 | inactive |
| STK35 (serine/threonine kinase 35) | SID315487791 | -0.27 | 0.765 | inactive |
| STK35 (serine/threonine kinase 35) | SID315487792 | 0.85 | 0.765 | inactive |
| STK35 (serine/threonine kinase 35) | SID315487793 | 1.03 | 0.765 | inactive |
| HARS2 (histidyl-tRNA synthetase 2, mitochondrial) | SID315485190 | 0.49 | 0.615 | inactive |
| HARS2 (histidyl-tRNA synthetase 2, mitochondrial) | SID315485191 | -0.19 | 0.615 | inactive |
| HARS2 (histidyl-tRNA synthetase 2, mitochondrial) | SID315485192 | 1.83 | 0.615 | active |
| HARS2 (histidyl-tRNA synthetase 2, mitochondrial) | SID315485193 | -1.13 | 0.615 | active |
| HARS2 (histidyl-tRNA synthetase 2, mitochondrial) | SID315485194 | 0.74 | 0.615 | inactive |
| HARS2 (histidyl-tRNA synthetase 2, mitochondrial) | SID315485195 | 3.33 | 0.615 | active |
| KCNH8 (potassium voltage-gated channel subfamily H member 8) | SID315487728 | 0.82 | 0.445 | inactive |
| KCNH8 (potassium voltage-gated channel subfamily H member 8) | SID315487729 | 1.06 | 0.445 | inactive |
| KCNH8 (potassium voltage-gated channel subfamily H member 8) | SID315487730 | 0 | 0.445 | inactive |
| KCNH8 (potassium voltage-gated channel subfamily H member 8) | SID315487731 | 0.07 | 0.445 | inactive |
| KCNH8 (potassium voltage-gated channel subfamily H member 8) | SID315487732 | 0.02 | 0.445 | inactive |
| KCNH8 (potassium voltage-gated channel subfamily H member 8) | SID315487733 | 1.01 | 0.445 | inactive |
| SRP54 (signal recognition particle 54) | SID315482928 | 0.34 | -1.74 | inactive |
| SRP54 (signal recognition particle 54) | SID315482929 | -2.5 | -1.74 | active |
| SRP54 (signal recognition particle 54) | SID315482930 | -1.73 | -1.74 | active |
| SRP54 (signal recognition particle 54) | SID315482931 | -2.06 | -1.74 | active |
| SRP54 (signal recognition particle 54) | SID315482932 | -1.75 | -1.74 | active |
| SRP54 (signal recognition particle 54) | SID315482933 | -0.84 | -1.74 | inactive |
| HNRNPC (heterogeneous nuclear ribonucleoprotein C) | SID315482454 | -0.38 | -0.07 | inactive |
| HNRNPC (heterogeneous nuclear ribonucleoprotein C) | SID315482455 | 0.63 | -0.07 | inactive |
| HNRNPC (heterogeneous nuclear ribonucleoprotein C) | SID315482456 | 0.42 | -0.07 | inactive |
| HNRNPC (heterogeneous nuclear ribonucleoprotein C) | SID315482457 | 0.08 | -0.07 | inactive |
| HNRNPC (heterogeneous nuclear ribonucleoprotein C) | SID315482458 | -0.85 | -0.07 | inactive |
| HNRNPC (heterogeneous nuclear ribonucleoprotein C) | SID315482459 | -0.22 | -0.07 | inactive |
| COL1A2 (collagen type I alpha 2 chain) | SID315482208 | -0.11 | -0.065 | inactive |
| COL1A2 (collagen type I alpha 2 chain) | SID315482209 | -0.85 | -0.065 | inactive |
| COL1A2 (collagen type I alpha 2 chain) | SID315482210 | -0.09 | -0.065 | inactive |
| COL1A2 (collagen type I alpha 2 chain) | SID315482211 | 2.64 | -0.065 | active |
| COL1A2 (collagen type I alpha 2 chain) | SID315482212 | -0.04 | -0.065 | inactive |
| COL1A2 (collagen type I alpha 2 chain) | SID315482213 | 1.62 | -0.065 | active |

Called active, of those listed so far:
| target | PubChem SID | TNF reporter z-score, replicate mean | z-score, median over gene's siRNAs | Outcome |
| --- | --- | --- | --- | --- |
| HARS2 (histidyl-tRNA synthetase 2, mitochondrial) | SID315485192 | 1.83 | 0.615 | active |
| HARS2 (histidyl-tRNA synthetase 2, mitochondrial) | SID315485193 | -1.13 | 0.615 | active |
| HARS2 (histidyl-tRNA synthetase 2, mitochondrial) | SID315485195 | 3.33 | 0.615 | active |
| SRP54 (signal recognition particle 54) | SID315482929 | -2.5 | -1.74 | active |
| SRP54 (signal recognition particle 54) | SID315482930 | -1.73 | -1.74 | active |
| SRP54 (signal recognition particle 54) | SID315482931 | -2.06 | -1.74 | active |
| SRP54 (signal recognition particle 54) | SID315482932 | -1.75 | -1.74 | active |
| COL1A2 (collagen type I alpha 2 chain) | SID315482211 | 2.64 | -0.065 | active |
| COL1A2 (collagen type I alpha 2 chain) | SID315482213 | 1.62 | -0.065 | active |

More entries:
| target | PubChem SID | TNF reporter z-score, replicate mean | z-score, median over gene's siRNAs | Outcome |
| --- | --- | --- | --- | --- |
| FAM47C (family with sequence similarity 47 member C) | SID315489288 | 2.65 | 0.545 | active |
| FAM47C (family with sequence similarity 47 member C) | SID315489289 | 0.42 | 0.545 | inactive |
| FAM47C (family with sequence similarity 47 member C) | SID315489290 | 0.67 | 0.545 | inactive |
| FAM47C (family with sequence similarity 47 member C) | SID315489291 | 2.78 | 0.545 | active |
| FAM47C (family with sequence similarity 47 member C) | SID315489292 | 0.37 | 0.545 | inactive |
| FAM47C (family with sequence similarity 47 member C) | SID315489293 | -0.02 | 0.545 | inactive |
| MAT2A (methionine adenosyltransferase 2A) | SID315482586 | -0.69 | -0.685 | inactive |
| MAT2A (methionine adenosyltransferase 2A) | SID315482587 | -1.3 | -0.685 | active |
| MAT2A (methionine adenosyltransferase 2A) | SID315482588 | -1.32 | -0.685 | active |
| MAT2A (methionine adenosyltransferase 2A) | SID315482589 | -0.48 | -0.685 | inactive |
| MAT2A (methionine adenosyltransferase 2A) | SID315482590 | -0.09 | -0.685 | inactive |
| MAT2A (methionine adenosyltransferase 2A) | SID315482591 | -0.68 | -0.685 | inactive |
| EAF1 (ELL associated factor 1) | SID315487221 | -1.25 | -0.53 | active |
| EAF1 (ELL associated factor 1) | SID315487222 | -0.85 | -0.53 | inactive |
| EAF1 (ELL associated factor 1) | SID315487223 | -0.25 | -0.53 | inactive |
| EAF1 (ELL associated factor 1) | SID315487224 | 0.06 | -0.53 | inactive |
| EAF1 (ELL associated factor 1) | SID315487225 | -0.64 | -0.53 | inactive |
| EAF1 (ELL associated factor 1) | SID315487226 | -0.42 | -0.53 | inactive |
| SLC16A10 | SID315487644 | 2.15 | 0.45 | active |
| SLC16A10 | SID315487645 | 0.59 | 0.45 | inactive |
| SLC16A10 | SID315487646 | -0.18 | 0.45 | inactive |
| SLC16A10 | SID315487647 | 2.03 | 0.45 | active |
| SLC16A10 | SID315487648 | 0.31 | 0.45 | inactive |
| SLC16A10 | SID315487649 | -0.14 | 0.45 | inactive |
